In patent publication US20240216517A1 one finds binding data, which are given here for 1 molecule.

In the assay the target is human transferrin receptor-Fc tag standard (human) (UniProt P02786). The assay is described as follows: ELISA, human transferrin receptor-Fc coated on the plate.

No constants are given. Whether binding was seen depends on the method and setting. Some entries that bind do so weakly or less than the wild type.

B1: huHF_Mutant2-dual (designed binder)
chain: MTTASTSQVRQNYHAASEAAINAQINLELYASYVYLSMSYYFDRDDVALKNFAKYFLHQSHEEREHAEKLMKLQNQRGGRIALADIQKPDCDGGSYGSLYAFDIDWESGLNAMECALHLEKNVNQSLLALHALATAKNDPHLCDFIETHYLNEQVKAIKELGDHVTNLRKMGAPESGLAEYLFDKHTLGDSDNESMPSFITLASLSTWEGYFDF
Regarding B1, the binding result is given as “binds”.
